Among the data in patent US20080038248A1 (published 2008) are binding values, retold here.

B1: NKG2D-Fc fusion protein (Fc fusion, human, UniProt P26718 73-216, looked up)
chain: IWSAVFLNSLFNQEVQIPLTESYCGPCPKNWICYKNNCYQFFDESKNWYESQASCMSQNASLLKVYSKEDQDLLKLVKSYHWMGLVHIPTNGSWQWEDGSILSPNLLTIIEMQKGDCALYASSFKGYIENCSTPNTYICMQRTV
notes: Produced in 293T cells, purified on Protein A. 'The fusion was C-terminal to human IgG1 hinge-CH2-CH3 domains'; also called recombinant soluble Fc fusion protein of NKG2D; not shown: human IgG1 hinge-CH2-CH3 domains, N-terminal to NKG2D (in pcDNA3.0)
B2: soluble recombinant extracellular domain of ULBP1, 6-Histidine N-terminal fusion (ligand, human)
chain: HHHHHHGWVDTHCLCYDFIITPKSRPEPQWCEVQGLVDERPFLHYDCVNHKAKAFASLGKKVNVTKTWEEQTETLRDVVDFLKGQLLDIQVENLIPIEPLTLQARMSCEHEAHGHGRGSWQFLFNGQKFLLFDSNNRKWTALHPGAKKMTEKWEKNRDVTMFFQKISLGDCKMWLEEFLMYWEQMLDPTKPPSLAPG
B3: soluble recombinant extracellular domain of RAET1G, 6-Histidine N-terminal fusion (ligand, human)
chain: HHHHHHGLADPHSLCYDITVIPKFRPGPRWCAVQGQVDEKTFLHYDCGSKTVTPVSPLGKKLNVTTAWKAQNPVLREVVDILTEQLLDIQLENYIPKEPLTLQARMSCEQKAEGHGSGSWQLSFDGQIFLLFDSENRMWTTVHPGARKMKEKWENDKDMTMSFHYISMGDCTGWLEDFLMGMDSTLEPSAGAPPTMSSGTAQPR
notes: extracellular domain; also called 6-His tagged recombinant RAET1G
B4: soluble recombinant extracellular domain of RAET1E, 6-Histidine N-terminal fusion (ligand, human)
chain: HHHHHHHSLCFNFTIKSLSRPGQPWCEAQVFLNKNLFLQYNSDNNMVKPLGLLGKKVYATSTWGELTQTLGEVGRDLRMLLCDIKPQIKTSDPSTLQVEMFCQREAERCTGASWQFATNGEKSLLFDAMNMTWTVINHEASKIKETWKKDRGLEKYFRKLSKGDCDHWLREFLGHWEAMPEPTVSPVNASDIHWSSSSLPD

The target in experiment [1] is T1, full-length RAET1G, N-terminal Flag-tagged fusion protein, on transfected cells (human) (UniProt Q6H3X3).
T1 sequence (looked up): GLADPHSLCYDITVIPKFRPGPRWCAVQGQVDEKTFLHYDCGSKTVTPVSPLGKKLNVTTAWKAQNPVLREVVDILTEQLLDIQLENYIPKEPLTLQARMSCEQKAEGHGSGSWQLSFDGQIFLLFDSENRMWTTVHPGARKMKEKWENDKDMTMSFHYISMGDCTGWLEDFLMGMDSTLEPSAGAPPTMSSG
Put plainly: flow cytometry on transfected COS-7 cells, NKG2D-Fc and anti human Fc-FITC (FIG. 11).

In experiment [2] the target is T1, full-length RAET1G, N-terminal Flag-tagged fusion protein, on transfected cells (human). Put plainly: flow cytometry on transfected COS-7 cells, anti-human IgG FITC detection.
Experiment [3] addresses T2, UL16 Fc fusion (human cytomegalovirus; human) (UniProt P16757).
T2 sequence: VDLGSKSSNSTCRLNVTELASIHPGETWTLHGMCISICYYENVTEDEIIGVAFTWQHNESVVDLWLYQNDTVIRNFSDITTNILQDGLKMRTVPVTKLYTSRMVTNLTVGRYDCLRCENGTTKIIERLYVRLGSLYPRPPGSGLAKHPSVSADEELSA
The experiment can be described thus: SPR (BIACore 2000).

The target in the experiment “NKG2D-Fc fusion protein” is B1. Put plainly: SPR (BIACore) plots, FIG. 14.
The target of experiment [4] is T2, UL16 Fc fusion (human cytomegalovirus; human). Put plainly: SPR (BIACore) plots, FIG. 14.

Results are given in words; binding and its absence hold for the method and conditions named. Some entries that bind do so weakly or less than the wild type. Sequences can lack the tags named with a protein.

Consider B1, for which the binding result in experiment [1] and in experiment [2] was “binds” throughout.
For the molecule B2, the binding entry in experiment [3] was “binds”.
As to B3, the binding entry (with NKG2D-Fc fusion protein; in experiment [4]; in experiment [3]) was “binds” throughout.
B4: the binding entry in experiment [4] and in experiment [3] was “binds” each time.
